# According to PubChem BioAssay AID651640 (Broad Institute, 2012):
# Out of some 350,000 compounds screened, about 6,000 (1.7%) were called active. Inconclusive results, whose numbers are uncertain, are shown with a selection of clear calls. Rule as the data show it: active = CPE inhibition above about 20% (passing the limit was not always enough); inconclusive = no clear call, values can overlap the other calls; tested in BHK-21 cells.
# Test: protection of cells from dengue 2 killing – plate reader, single concentration, primary screen (AID 651640);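 also: 0% = median of neutral control wells and 100% = median of positive control wells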
# Conditions: DENV2-infected cells, cytopathic effect rescue, at 9.99 µM, stronger effect = higher value
row,Structure (SMILES),CPE inhibition
1,COc1ccc([C@@H]2CC=C(C(=O)O)[C@H](c3ccc(C(C)(C)C)cc3)N2S(=O)(=O)c2ccc(C)cc2)cc1OC,inconclusive: 55.5%
2,O=C(COC(=O)c1ccc2c(c1)OCCO2)NCCc1ccc(F)cc1,inconclusive: 20.9%
3,C[C@@H]1CN([C@H](C)CO)C(=O)c2cc(NC(=O)Nc3ccc(F)cc3)ccc2O[C@H]1CN(C)Cc1ccc(-c2ccccc2)cc1,inconclusive: 22.7%
4,C[C@@H]1CCCCO[C@H](CN(C)S(=O)(=O)c2cccs2)[C@H](C)CN([C@@H](C)CO)C(=O)c2cc(NC(=O)Nc3cccc4ccccc34)ccc2O1,inconclusive: 27.6%
5,C[C@@H]1CCCCO[C@H](CN(C)C(=O)Nc2ccc(F)cc2)[C@H](C)CN([C@@H](C)CO)C(=O)c2cc(NC(=O)Cc3ccccc3)ccc2O1,inactive: 0.515%
6,Nc1c(N(Cc2ccco2)C(=O)c2cccc(Cl)c2)c(=O)[nH]c(=O)n1Cc1ccccc1,inconclusive: 20.7%
7,COc1ccc(F)cc1-c1cc(C(=O)NCc2cc(C(F)(F)F)cc(C(F)(F)F)c2)[nH]n1,inconclusive: 21.9%
8,COc1ccccc1-c1oc2ccccc2c1C#CC1(N)CCCCC1,inconclusive: 21.6%
9,O=C(C[C@H]1CC[C@H](NC(=O)NC2CCCCC2)[C@@H](CO)O1)NCc1ccccc1,inactive: -1.66%
10,CCOC(=O)C1CCCN(C(=O)c2cccc(OC(F)(F)F)c2)CC1 (stereo not drawn),inconclusive: 46.2%
11,CN1C[C@@H]2[C@@H]3C(=O)N(Cc4ccccc4)C(=O)[C@@H]3[C@](C)(C1=O)N2C(=O)c1ccc(C(C)(C)C)cc1,active: 53.8%
12,C[C@@H]1CCCCO[C@H](CN(C)C(=O)c2ccccc2)[C@H](C)CN([C@@H](C)CO)C(=O)c2cc(NC(=O)CCCCCC(=O)Nc3ccccc3N)ccc2O1,active: 20.3%
13,O=C(Nc1cc(C(F)(F)F)ccc1-n1cncn1)c1ccc(F)cc1Cl,inconclusive: 24.7%
14,C[C@@H]1CCCCO[C@@H](CN(C)S(=O)(=O)c2ccc(F)cc2)[C@@H](C)CN([C@H](C)CO)C(=O)c2cc(NC(=O)Nc3ccc(C(F)(F)F)cc3)ccc2O1,active: 87.6%
15,Cc1ccc([C@H]2N[C@]3(CCCN(Cc4ccccc4)C3=O)[C@H]3C(=O)N(C)C(=O)[C@@H]23)cc1,inconclusive: 34.3%
16,Cc1ccc(-c2c[n+](CC(=O)N3c4ccccc4Sc4ccccc43)c3n2CCC3)cc1,inactive: -2.16%
17,O=C(Cn1cc([N+](=O)[O-])ccc1=O)NC1CCCCC1,inconclusive: 24.8%
18,CCCCN1C=C(C(C)=O)C(=O)CC1,active: 46.8%
19,CCCN1[C@@H]2c3ccc(-c4cccnc4)c(=O)n3C[C@@H]2[C@@H](CO)[C@@H]1C(=O)NCCCN1CCOCC1,inconclusive: 39.9%
20,CO[C@@H]1CN(C)C(=O)c2cc(NC(=O)c3ccc4c(c3)OCO4)ccc2OC[C@@H](C)N(CCC(F)(F)F)C[C@@H]1C,active: 35.6%
21,COc1ccc(NC(=O)Nc2ccc3c(c2)C(=O)N([C@H](C)CO)C[C@H](C)[C@@H](CN(C)S(=O)(=O)c2c(C)noc2C)OCCCC[C@H](C)O3)cc1,inconclusive: 33.8%
22,COc1ccc(C(=O)Nc2ccccc2Cc2ccccc2)c(OC)c1,inconclusive: 24.7%
23,C[C@H](CO)N1C[C@H](C)[C@@H](CN(C)C(=O)Nc2cccc3ccccc23)OCCCC[C@H](C)Oc2ccc(NS(=O)(=O)c3ccc(F)cc3)cc2C1=O,active: 38.9%

row,Structure (SMILES),CPE inhibition
1,COc1ccc2c3c(n(C)c2c1)[C@H](CO)NCC31CN(C(=O)Nc2ccc3c(c2)OCO3)C1,inactive: -1.18%
2,O=C(O)COc1ccc(F)cc1Br,inconclusive: 24%
3,COc1ccc(CNC(=O)C[C@@H]2C[C@@H]3c4cc(NS(=O)(=O)c5ccc(F)cc5)ccc4O[C@@H]3[C@@H](CO)O2)cc1,inconclusive: 47.8%
4,COc1cccc(-c2cnc3c(c2)C(=O)N([C@@H](C)CO)C[C@H](C)[C@@H](CN(C)Cc2ccc(C(=O)O)cc2)O3)c1,inactive: -5.4%
5,COC(=O)[C@@]1(Cc2ccc(F)cc2)[C@H]2c3cc(C(=O)N4CCCC4)n(Cc4cc(C)n(C)n4)c3C[C@H]2CN1C(=O)c1ccccc1,inconclusive: 92.4%
6,CN1CCN(CCCCOc2ccccc2C=O)CC1,inactive: 1.32%
7,CC1CN(C(=S)Nc2ccccc2)CC(C)O1 (stereo not drawn),inconclusive: 23.3%
8,O=C(Cc1cccnc1)N1CC(=O)N2[C@H](C1)[C@H](c1ccc(C#CC3CCCC3)cc1)[C@@H]2CO,inconclusive: 62.1%
9,C[C@H]1CN([C@@H](C)CO)C(=O)CCCn2cc(nn2)CO[C@@H]1CN(C)C(=O)Nc1ccc(N2CCCCC2)cc1,inconclusive: 34.3%
10,COc1cccc(-c2nc(C(=O)NCCCN3CCOCC3)cc3c2[nH]c2ccccc23)c1,inconclusive: 40.8%
11,Cc1ccc(-c2nc(C)sc2CC(=O)OCC(=O)Nc2cccc([N+](=O)[O-])c2)cc1,inconclusive: 22%
12,C[C@H](NC(=O)C[C@@H]1C[C@@H]2c3cc(NC(=O)Cc4ccncc4)ccc3O[C@@H]2[C@H](CO)O1)c1ccccc1,inconclusive: 21%
13,C[C@@H]1CN([C@H](C)CO)C(=O)Cc2cc(NS(=O)(=O)c3ccc(F)cc3)ccc2O[C@@H]1CN(C)C,inconclusive: 33.7%
14,C[C@H](NC(=O)C[C@@H]1CC[C@H](NC(=O)c2cccnc2)[C@H](CO)O1)c1ccccc1,inconclusive: 37.8%
15,CO[C@@H]1CN(C)C(=O)c2ccc(NC(=O)Nc3c(C)noc3C)cc2OC[C@H](C)N(CCC(F)(F)F)C[C@H]1C,active: 36.7%
16,CCNC(=O)N(CC)C[C@H]1N[C@@](Cc2ccccc2)(C(=O)OC)[C@H]2C(=O)N(Cc3ccccc3)C(=O)[C@@H]12,active: 37.2%
17,C[C@H](CO)N1C[C@H](C)[C@H](CN(C)Cc2ccc(C(=O)O)cc2)OCCCC[C@H](C)Oc2ccc(NC(=O)CCCN(C)C)cc2C1=O,active: 30.2%
18,Cc1cc(N)n(-c2ccc(S(=O)(=O)c3ccc(C(C)C)cc3)cc2)n1,inactive: -7.34%
19,CO[C@@H]1CN(C)C(=O)c2cc(NC(C)=O)ccc2OC[C@H](C)N(C(=O)c2ccccc2F)C[C@@H]1C,inactive: -1.53%
20,COc1cc(/C(C)=N/NC(=O)CSc2nncn2C)ccc1OCc1ccccc1Cl,inconclusive: 81.3%
21,C[C@H]1CN([C@@H](C)CO)C(=O)c2cc(NC(=O)C3CC3)ccc2O[C@@H]1CN(C)Cc1ccncc1,inconclusive: 25.3%
22,COCC(=O)N1[C@@H](C#N)[C@H](c2ccccc2-c2cccc(F)c2)[C@@H]1CO,inactive: -6.41%
23,COc1cccc(C#Cc2ccc([C@H]3[C@@H](CO)N4C(=O)CN(C(=O)c5ccncc5)C[C@@H]34)cc2)c1,inactive: 6.48%

# Retrieved by structure from above, 4 records:
row,Structure (SMILES),CPE inhibition
2,O=C(O)COc1ccc(F)cc1Br,inconclusive: 24%
13,C[C@@H]1CN([C@H](C)CO)C(=O)Cc2cc(NS(=O)(=O)c3ccc(F)cc3)ccc2O[C@@H]1CN(C)C,inconclusive: 33.7%
21,C[C@H]1CN([C@@H](C)CO)C(=O)c2cc(NC(=O)C3CC3)ccc2O[C@@H]1CN(C)Cc1ccncc1,inconclusive: 25.3%
20,COc1cc(/C(C)=N/NC(=O)CSc2nncn2C)ccc1OCc1ccccc1Cl,inconclusive: 81.3%

# Later entries:

row,Structure (SMILES),CPE inhibition
1,CN(Cc1cccs1)C(=O)c1ccc(S(=O)(=O)N2CCCCC2)cc1,inactive: 2.02%
2,CCN(C(=O)CSc1nnc(NCCOC)s1)c1c(N)n(Cc2ccccc2)c(=O)[nH]c1=O,active: 68.9%
3,Cn1ccnc1SCC(=O)c1c[nH]c2ccccc12,inconclusive: 25.2%
4,CCN(CC)S(=O)(=O)c1ccc(O)c(NC(=O)c2ccc(N3CCOCC3)c([N+](=O)[O-])c2)c1,inconclusive: 34.1%
5,CCOC(=O)Nc1ccc(OC)c([N+](=O)[O-])c1,inconclusive: 22.2%
6,CCOC(=O)N1CCN(C(=O)COC(=O)c2oc3ccc(OC)cc3c2C)CC1,inconclusive: 25.4%
7,CO[C@@H]1CN(C)C(=O)c2ccc(NC(C)=O)cc2OC[C@@H](C)N(C(=O)c2cccnc2)C[C@H]1C,inactive: 1.95%
8,CCCNC(=O)N1CC2(CCN(S(=O)(=O)CC)CC2)c2c([nH]c3cc(OC)ccc23)[C@@H]1CO,active: 30.6%
9,O=C(C[C@H]1C=C[C@@H](NC(=O)CC2CC2)[C@@H](CO)O1)NCC(F)(F)F,inactive: -1.57%
10,CC(C(=O)N1CCN(c2ccccc2F)CC1)c1ccc([N+](=O)[O-])cc1 (stereo not drawn),inconclusive: 21.5%
11,COc1ccc(Br)c(C=O)c1OS(=O)(=O)c1ccc(C)cc1,inconclusive: 53.2%
12,O=C(C[C@H]1CC[C@@H](NC(=O)CC2CC2)[C@@H](CO)O1)NCc1ccc(-c2ccccc2)cc1,active: 48%
13,CCCCn1nc(C(=O)Nc2cc(C(F)(F)F)ccc2N2CCOCC2)ccc1=O,inconclusive: 25.3%
14,O=C(Nc1ccccc1F)N[C@H]1CC[C@@H](CCNC(=O)C2CCCC2)O[C@H]1CO,inactive: 3.72%
15,CC(C)NC(=O)N[C@H]1CC[C@@H](CCNS(=O)(=O)Cc2ccccc2)O[C@H]1CO,inconclusive: 23.6%
16,C[C@@H]1CN([C@H](C)CO)C(=O)c2cccc(NS(C)(=O)=O)c2O[C@@H]1CN(C)Cc1ccc(Cl)c(Cl)c1,inactive: 6.95%
17,CCNC(=O)C[C@@H]1CC[C@@H]2[C@H](COC[C@@H](O)CN2C(=O)C2CC2)O1,inconclusive: 28.6%
18,O=C(O)c1cc(=O)c2ccccc2o1,inconclusive: 21.8%
19,CC1(C(=O)NS(=O)(=O)C2CC2)CCCN(C(=O)c2ccc(F)c(Cl)c2)C1 (stereo not drawn),inconclusive: 37.3%
20,CCOP(=O)(OCC)/C(C#N)=C/c1c[nH]c2ccccc12,inconclusive: 21.7%
21,COc1cccc(-n2c(C)cc(/C=C3/C(=N)N4C(=NC3=O)SN=C4S(C)(=O)=O)c2C)c1,inconclusive: 20.1%
22,O=C(Nc1cc(S(=O)(=O)N2CCOCC2)ccc1N1CCCCC1)c1ccc(Cl)cc1,inconclusive: 44.6%
